# Data as given in the supplement of paper PMC6411743.
# ± gives the standard deviation of the averaged measurements. The list shows a part of the results.
# Columns and labels:
# Experiment in all cases: NP40-soluble protein abundance relative to vehicle (solubility fold change) (ratio); higher = more soluble protein in presence of GTP
# ADAM10 = target: T1, ADAM10 (UniProt O14672)
# T1 sequence (whole entry): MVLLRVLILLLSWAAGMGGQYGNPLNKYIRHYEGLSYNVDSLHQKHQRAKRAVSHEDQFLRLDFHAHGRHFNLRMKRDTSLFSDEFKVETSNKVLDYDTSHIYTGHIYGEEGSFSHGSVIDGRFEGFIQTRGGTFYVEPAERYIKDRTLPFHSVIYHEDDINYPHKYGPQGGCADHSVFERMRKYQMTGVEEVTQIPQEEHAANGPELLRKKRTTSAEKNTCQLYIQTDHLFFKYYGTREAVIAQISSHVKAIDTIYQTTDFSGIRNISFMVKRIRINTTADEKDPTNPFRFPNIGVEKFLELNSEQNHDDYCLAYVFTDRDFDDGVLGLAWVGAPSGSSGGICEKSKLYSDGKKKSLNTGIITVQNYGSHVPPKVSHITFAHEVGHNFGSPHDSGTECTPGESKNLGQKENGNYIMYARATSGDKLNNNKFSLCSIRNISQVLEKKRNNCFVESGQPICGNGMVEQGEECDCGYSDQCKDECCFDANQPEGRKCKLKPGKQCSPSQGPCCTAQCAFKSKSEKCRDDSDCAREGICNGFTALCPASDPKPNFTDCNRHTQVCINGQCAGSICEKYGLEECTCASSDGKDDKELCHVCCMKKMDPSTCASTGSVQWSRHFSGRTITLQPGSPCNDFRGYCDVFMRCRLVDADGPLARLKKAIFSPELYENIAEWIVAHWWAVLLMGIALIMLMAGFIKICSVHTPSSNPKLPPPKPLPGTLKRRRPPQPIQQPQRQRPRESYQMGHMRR
# Summary of the method: (§1)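 Across three independent experiments, values are fold changes against the detergent-processed vehicle for each replicate, based on vsn-normalised intensities. The samples were Jurkat crude lysate treated with eight concentrations (0.1 to 10 mM) for 10 min at room temperature and then 3 min at 37 °C. Lysate was solubilised with 0.8% NP40 and benzonase, ultracentrifuged, and the supernatant analysed by TMT-labelled LC-MS/MS.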
# DOK2 = target: T2, DOK2 (UniProt O60496)
# T2 sequence (whole entry): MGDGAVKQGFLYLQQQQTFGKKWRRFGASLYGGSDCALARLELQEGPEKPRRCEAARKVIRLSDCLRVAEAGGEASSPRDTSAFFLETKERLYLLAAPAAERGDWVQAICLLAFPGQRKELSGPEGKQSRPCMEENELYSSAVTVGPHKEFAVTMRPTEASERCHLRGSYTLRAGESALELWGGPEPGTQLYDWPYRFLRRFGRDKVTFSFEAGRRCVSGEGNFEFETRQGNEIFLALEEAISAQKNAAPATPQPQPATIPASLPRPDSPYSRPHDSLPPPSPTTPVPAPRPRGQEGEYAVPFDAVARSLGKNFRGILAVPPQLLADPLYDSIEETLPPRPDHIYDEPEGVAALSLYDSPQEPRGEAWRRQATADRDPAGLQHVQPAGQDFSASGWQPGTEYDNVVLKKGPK
# Summary of the method: as §1
# [1] = target: T3, M0R165 and related entries (UniProt Q9UBC2)
# T3 sequence (whole entry): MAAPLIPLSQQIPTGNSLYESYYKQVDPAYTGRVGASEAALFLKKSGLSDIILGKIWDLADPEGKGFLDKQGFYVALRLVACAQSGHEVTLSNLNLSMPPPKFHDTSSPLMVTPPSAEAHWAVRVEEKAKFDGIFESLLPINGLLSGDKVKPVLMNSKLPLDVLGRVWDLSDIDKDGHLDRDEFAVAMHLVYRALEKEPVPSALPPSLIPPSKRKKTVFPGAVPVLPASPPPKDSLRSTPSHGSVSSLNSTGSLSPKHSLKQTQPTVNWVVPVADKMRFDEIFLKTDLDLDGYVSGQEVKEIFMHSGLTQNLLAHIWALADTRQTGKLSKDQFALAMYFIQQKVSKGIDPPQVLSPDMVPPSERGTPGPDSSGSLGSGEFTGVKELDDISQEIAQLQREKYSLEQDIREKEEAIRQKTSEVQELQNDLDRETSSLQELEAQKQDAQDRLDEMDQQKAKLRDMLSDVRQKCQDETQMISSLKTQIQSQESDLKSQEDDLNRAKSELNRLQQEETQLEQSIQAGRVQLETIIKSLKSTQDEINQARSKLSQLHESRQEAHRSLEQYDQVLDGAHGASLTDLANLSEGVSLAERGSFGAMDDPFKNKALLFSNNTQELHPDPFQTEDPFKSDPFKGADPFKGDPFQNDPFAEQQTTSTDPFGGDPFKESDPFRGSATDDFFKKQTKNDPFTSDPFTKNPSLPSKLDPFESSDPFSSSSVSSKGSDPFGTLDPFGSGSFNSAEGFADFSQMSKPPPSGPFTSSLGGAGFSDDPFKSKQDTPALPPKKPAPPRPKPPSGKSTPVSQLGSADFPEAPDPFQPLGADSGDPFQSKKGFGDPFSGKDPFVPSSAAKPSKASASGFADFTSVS
# Summary of the method: as §1
# NVL = target: T4, NVL (UniProt O15381)
# T4 sequence (whole entry): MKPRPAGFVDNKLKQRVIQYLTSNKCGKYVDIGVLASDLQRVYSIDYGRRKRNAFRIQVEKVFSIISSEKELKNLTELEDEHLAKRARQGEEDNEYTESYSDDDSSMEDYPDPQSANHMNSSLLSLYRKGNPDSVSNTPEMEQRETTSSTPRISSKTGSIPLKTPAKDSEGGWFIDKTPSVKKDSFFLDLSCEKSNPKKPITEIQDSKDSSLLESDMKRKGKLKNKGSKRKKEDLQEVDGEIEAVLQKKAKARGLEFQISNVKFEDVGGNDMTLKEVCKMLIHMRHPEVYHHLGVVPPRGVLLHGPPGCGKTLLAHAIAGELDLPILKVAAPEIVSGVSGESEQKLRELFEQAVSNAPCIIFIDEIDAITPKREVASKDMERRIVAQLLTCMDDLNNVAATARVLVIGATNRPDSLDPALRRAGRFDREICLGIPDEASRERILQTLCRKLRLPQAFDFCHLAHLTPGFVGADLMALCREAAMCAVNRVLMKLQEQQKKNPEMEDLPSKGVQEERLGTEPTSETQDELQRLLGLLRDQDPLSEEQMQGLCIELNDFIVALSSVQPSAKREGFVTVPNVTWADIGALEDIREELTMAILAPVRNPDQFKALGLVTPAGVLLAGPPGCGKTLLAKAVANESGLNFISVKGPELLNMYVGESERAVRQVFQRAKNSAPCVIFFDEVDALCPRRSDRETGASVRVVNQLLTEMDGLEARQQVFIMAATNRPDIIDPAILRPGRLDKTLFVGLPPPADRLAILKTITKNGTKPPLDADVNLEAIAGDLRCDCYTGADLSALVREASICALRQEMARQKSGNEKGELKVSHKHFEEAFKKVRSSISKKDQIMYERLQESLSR
# Summary of the method: as §1
smiles,measurement,setting,value
Nc1nc2c(ncn2[C@@H]2O[C@H](COP(=O)(O)OP(=O)(O)OP(=O)(O)O)[C@@H](O)[C@H]2O)c(=O)[nH]1 [guanosine triphosphate],NP40-soluble protein abundance,ADAM10; concentration: 0.1mM,1.04 ± 0.064
same,NP40-soluble protein abundance,ADAM10; concentration: 0.5mM,1 ± 0.067
same,NP40-soluble protein abundance,ADAM10; concentration: 1mM,1.04 ± 0.072
same,NP40-soluble protein abundance,ADAM10; concentration: 2mM,0.992 ± 0.052
same,NP40-soluble protein abundance,ADAM10; concentration: 4mM,1.01 ± 0.084
same,NP40-soluble protein abundance,ADAM10; concentration: 6mM,1 ± 0.068
same,NP40-soluble protein abundance,ADAM10; concentration: 8mM,1.03 ± 0.071
same,NP40-soluble protein abundance,ADAM10; concentration: 10mM,1 ± 0.06
same,NP40-soluble protein abundance,DOK2; concentration: 0.1mM,1.06 ± 0.072
same,NP40-soluble protein abundance,DOK2; concentration: 0.5mM,1.03 ± 0.051
same,NP40-soluble protein abundance,DOK2; concentration: 1mM,0.986 ± 0.033
same,NP40-soluble protein abundance,DOK2; concentration: 2mM,0.94 ± 0.032
same,NP40-soluble protein abundance,DOK2; concentration: 4mM,0.933 ± 0.046
same,NP40-soluble protein abundance,DOK2; concentration: 6mM,0.94 ± 0.048
same,NP40-soluble protein abundance,DOK2; concentration: 8mM,0.933 ± 0.014
same,NP40-soluble protein abundance,DOK2; concentration: 10mM,0.913 ± 0.038
same,NP40-soluble protein abundance,[1]; concentration: 0.1mM,0.922 ± 0.023
same,NP40-soluble protein abundance,[1]; concentration: 0.5mM,0.898 ± 0.068
same,NP40-soluble protein abundance,[1]; concentration: 1mM,0.967 ± 0.06
same,NP40-soluble protein abundance,[1]; concentration: 2mM,0.927 ± 0.1
same,NP40-soluble protein abundance,[1]; concentration: 4mM,0.918 ± 0.067
same,NP40-soluble protein abundance,[1]; concentration: 6mM,0.938 ± 0.085
same,NP40-soluble protein abundance,[1]; concentration: 8mM,0.947 ± 0.053
same,NP40-soluble protein abundance,[1]; concentration: 10mM,0.935 ± 0.08
same,NP40-soluble protein abundance,NVL; concentration: 0.1mM,1.137 ± 0.011
same,NP40-soluble protein abundance,NVL; concentration: 0.5mM,1.18 ± 0.096
same,NP40-soluble protein abundance,NVL; concentration: 1mM,1.25 ± 0.08
same,NP40-soluble protein abundance,NVL; concentration: 2mM,1.31 ± 0.058

# Quoted at random: 2 entries already listed
smiles,measurement,setting,value
Nc1nc2c(ncn2[C@@H]2O[C@H](COP(=O)(O)OP(=O)(O)OP(=O)(O)O)[C@@H](O)[C@H]2O)c(=O)[nH]1 [guanosine triphosphate],NP40-soluble protein abundance,DOK2; concentration: 6mM,0.94 ± 0.048
same,NP40-soluble protein abundance,[1]; concentration: 10mM,0.935 ± 0.08
